Results are given in words; binding and its absence hold for the method and conditions named. Some results given as binding are weak or reduced against the parent protein; the word gives no strength.
Columns and labels:
Test in all cases: FACS on HEK293T cells transiently transfected with the KLB cDNA
[1] = target: cynomolgus monkey KLB (+N-ter FLAG) (cynomolgus monkey)
[2] = target: rabbit KLB (+N-ter FLAG) (rabbit)
[3] = target: rhesus monkey KLB (+N-ter FLAG) (rhesus monkey)

binding [1]: binds
binding [2]: binds
binding [3]: binds
B1: 8E1 (antibody, V domains shown)
VH: EVQLQQSGAELVKPGASVKLSCTAADFNIKDTYMHWVKQRPEQGLEWIGRIDPSNGNAKYDPKFQGKASITADSSSNTAYLHLSSLTSEDTAVYYCASRALGNGYALGYWGQGTSVTVSS
VL: DIQMTQSSSYLSVSLGGSVTITCKASDHINNWLAWYQQKPGNAPRLLIYGTTNLETGVPSRFSGSGSGRDYILSITSLQSEDVASYYCQQYWNTPFTFGSGTKLEIK
